Literature values, collected in patent publication US8211654B2, “High-throughput assay for sugar-mediated drug transport” (Wisconsin Alumni Research Foundation, priority 2008, dated 2012).
Some of these results come from one statement about several compounds together.

What was measured:
[1] = molecular target: T1, GLUT3 (Homo sapiens, UniProt P11169); details: literature; cited from earlier work
T1 construct: host or cells: Xenopus oocytes mainly; also COS-7, CHO, yeast variants (not tied to single values)
T1 sequence (P11169 1-496): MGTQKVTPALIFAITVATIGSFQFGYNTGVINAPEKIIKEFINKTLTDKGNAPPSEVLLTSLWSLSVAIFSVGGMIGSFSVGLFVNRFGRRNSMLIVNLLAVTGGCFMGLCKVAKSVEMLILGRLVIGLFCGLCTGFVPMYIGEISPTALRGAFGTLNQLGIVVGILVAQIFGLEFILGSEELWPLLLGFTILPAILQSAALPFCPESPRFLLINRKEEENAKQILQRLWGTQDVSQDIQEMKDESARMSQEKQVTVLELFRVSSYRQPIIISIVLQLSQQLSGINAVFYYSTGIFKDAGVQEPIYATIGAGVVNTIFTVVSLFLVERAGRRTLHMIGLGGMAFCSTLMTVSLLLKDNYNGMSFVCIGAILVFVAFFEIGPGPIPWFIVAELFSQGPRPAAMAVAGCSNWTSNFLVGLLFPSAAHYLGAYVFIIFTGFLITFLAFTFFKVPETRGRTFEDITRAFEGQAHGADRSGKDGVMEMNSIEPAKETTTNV

[2] = molecular target: T2, GLUT1 (Homo sapiens, UniProt P11166); details: literature; may be Ki from inhibition of radio-labeled sugar transport; cited from earlier work
T2 construct: host or cells: Xenopus oocytes mainly; also COS-7, CHO, yeast variants (not tied to single values)
T2 sequence (P11166 1-492): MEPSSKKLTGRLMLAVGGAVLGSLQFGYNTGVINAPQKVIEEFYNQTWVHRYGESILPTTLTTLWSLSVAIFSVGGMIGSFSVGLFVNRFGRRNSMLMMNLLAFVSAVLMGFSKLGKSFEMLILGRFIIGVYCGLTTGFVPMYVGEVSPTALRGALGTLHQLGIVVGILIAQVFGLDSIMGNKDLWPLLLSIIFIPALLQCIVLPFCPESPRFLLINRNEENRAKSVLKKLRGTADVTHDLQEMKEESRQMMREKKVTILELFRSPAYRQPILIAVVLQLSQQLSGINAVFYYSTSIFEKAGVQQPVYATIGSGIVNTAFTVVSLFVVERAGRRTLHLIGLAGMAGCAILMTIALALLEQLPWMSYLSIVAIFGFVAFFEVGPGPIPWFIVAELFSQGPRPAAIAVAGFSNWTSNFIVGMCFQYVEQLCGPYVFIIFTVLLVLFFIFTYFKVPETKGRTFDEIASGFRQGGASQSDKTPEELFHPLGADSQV

[3] = molecular target: T3, GLUT7 (Homo sapiens, UniProt Q6PXP3); details: literature; cited from earlier work
T3 construct: host or cells: Xenopus oocytes mainly; also COS-7, CHO, yeast variants (not tied to single values)
T3 sequence (Q6PXP3 1-512): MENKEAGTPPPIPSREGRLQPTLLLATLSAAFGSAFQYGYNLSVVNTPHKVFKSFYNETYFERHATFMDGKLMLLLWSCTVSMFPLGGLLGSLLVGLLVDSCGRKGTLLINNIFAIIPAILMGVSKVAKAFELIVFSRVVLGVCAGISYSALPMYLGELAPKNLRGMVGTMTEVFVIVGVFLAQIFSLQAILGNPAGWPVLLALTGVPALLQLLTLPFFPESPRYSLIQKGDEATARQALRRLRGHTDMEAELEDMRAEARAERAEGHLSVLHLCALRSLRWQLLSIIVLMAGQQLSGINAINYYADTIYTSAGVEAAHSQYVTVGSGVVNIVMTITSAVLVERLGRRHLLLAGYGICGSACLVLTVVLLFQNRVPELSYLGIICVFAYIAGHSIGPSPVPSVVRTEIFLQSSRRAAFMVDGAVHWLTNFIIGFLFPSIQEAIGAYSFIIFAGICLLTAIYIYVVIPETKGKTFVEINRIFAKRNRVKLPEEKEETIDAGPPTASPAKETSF

[4] = molecular target: T4, GLUT2 (Homo sapiens, UniProt P11168); details: literature; cited from earlier work
T4 construct: host or cells: Xenopus oocytes mainly; also COS-7, CHO, yeast variants (not tied to single values)
T4 sequence (P11168 1-524): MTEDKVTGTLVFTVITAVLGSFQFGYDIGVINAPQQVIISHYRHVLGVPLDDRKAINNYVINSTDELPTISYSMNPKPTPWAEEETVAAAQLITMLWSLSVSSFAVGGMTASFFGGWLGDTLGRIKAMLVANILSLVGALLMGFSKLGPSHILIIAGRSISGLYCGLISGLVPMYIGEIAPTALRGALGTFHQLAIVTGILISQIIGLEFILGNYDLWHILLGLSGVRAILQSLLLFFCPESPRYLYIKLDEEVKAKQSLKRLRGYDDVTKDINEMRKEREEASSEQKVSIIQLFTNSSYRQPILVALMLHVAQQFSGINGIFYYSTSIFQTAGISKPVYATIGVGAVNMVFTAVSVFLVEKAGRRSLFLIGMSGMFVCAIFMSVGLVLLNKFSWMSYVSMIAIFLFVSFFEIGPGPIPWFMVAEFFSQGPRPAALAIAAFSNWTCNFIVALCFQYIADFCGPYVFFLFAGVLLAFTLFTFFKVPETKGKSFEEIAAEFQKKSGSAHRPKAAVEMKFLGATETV

SMILES: OC[C@H]1O[C@H](O[C@H]2[C@H](O)[C@@H](O)C(O)O[C@@H]2CO)[C@H](O)[C@@H](O)[C@@H]1O (mixture of isomers) [maltose]
- affinity for GLUT3 [1]: greater than 8.5 mM

SMILES: CO[C@@H]([C@H](O)[C@H](O)CO)[C@@H](O)C=O [3-O-methylglucose]
- affinity for GLUT1 [2]: greater than 15 mM

SMILES: O=C(CO)[C@@H](O)[C@H](O)[C@H](O)CO [fructose]
- affinity for GLUT7 [3]: greater than 0.5 mM
- affinity for GLUT2 [4]: greater than 15 mM
